From article PMC10682013
These are yes or no findings as the source states them, for the method shown. In cells and extracts the contact can be indirect. Some entries that bind do so weakly or less than the wild type.

By UniProt entry, the sequences of proteins in these tests, tags left out.
UniProt P52732: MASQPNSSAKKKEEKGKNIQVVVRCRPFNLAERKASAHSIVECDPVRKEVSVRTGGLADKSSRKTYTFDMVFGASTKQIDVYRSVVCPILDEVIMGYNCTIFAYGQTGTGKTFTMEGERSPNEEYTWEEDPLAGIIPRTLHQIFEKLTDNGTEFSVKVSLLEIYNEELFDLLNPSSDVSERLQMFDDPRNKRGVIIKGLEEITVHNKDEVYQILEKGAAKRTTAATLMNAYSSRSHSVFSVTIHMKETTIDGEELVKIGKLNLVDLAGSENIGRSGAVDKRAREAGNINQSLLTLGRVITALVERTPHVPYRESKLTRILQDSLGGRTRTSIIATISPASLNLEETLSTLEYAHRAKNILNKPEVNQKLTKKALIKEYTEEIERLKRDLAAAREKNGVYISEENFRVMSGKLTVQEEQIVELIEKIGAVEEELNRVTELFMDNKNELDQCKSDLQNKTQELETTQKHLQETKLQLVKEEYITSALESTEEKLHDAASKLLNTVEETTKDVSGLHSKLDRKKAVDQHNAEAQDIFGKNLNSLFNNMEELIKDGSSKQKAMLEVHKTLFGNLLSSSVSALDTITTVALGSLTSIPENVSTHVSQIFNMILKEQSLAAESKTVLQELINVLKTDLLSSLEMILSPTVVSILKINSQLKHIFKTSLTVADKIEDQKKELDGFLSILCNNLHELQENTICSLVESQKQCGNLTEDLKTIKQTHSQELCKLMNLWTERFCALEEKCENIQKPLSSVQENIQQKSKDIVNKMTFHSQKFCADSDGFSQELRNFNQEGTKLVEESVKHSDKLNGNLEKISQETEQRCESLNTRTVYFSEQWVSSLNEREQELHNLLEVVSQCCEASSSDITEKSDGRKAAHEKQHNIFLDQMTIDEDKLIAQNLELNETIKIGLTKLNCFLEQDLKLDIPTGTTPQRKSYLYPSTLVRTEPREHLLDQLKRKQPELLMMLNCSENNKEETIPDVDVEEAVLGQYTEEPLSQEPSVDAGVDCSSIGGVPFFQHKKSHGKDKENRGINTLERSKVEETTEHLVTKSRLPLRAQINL

Tests used:
[1] = molecular target: 3×Flag-TACC3 (Transforming acidic coiled-coil-containing protein 3) (UniProt Q9Y6A5); assay: co-IP; 3×Flag-tagged bait expressed in HEK293T cells; whole cell lysate; precipitated with anti-3×Flag IgG, normal IgG as negative control; Western blotting of input and precipitates
[2] = molecular target: 3×Flag-KIF11 (Kinesin Family Member 11) (UniProt P52732); assay: as above

Kinesin Family Member 11 (KIF11), endogenous (from UniProt P52732 1-1056)
binding [1]: binds

Transforming acidic coiled-coil-containing protein 3 (TACC3), endogenous (from UniProt Q9Y6A5 1-838)
binding [2]: binds
